Here are results for four molecules from patent US20050256081A1, “Tetracycline derivatives for the treatment of ocular pathologies” (priority 2004, published 2005).

The test system of series [1] is corneal neovascularization. The series can be described thus: Silver nitrate cauterization corneal neovascularization model, single agents (Example 5). The note with it: topical two times daily for 7 days, 7th day; same concentrations as for neovascularization. It counts as in vivo, Long Evans pigmented rats.
The subject of series [2] is corneal neovascularization. The series is described as follows: Silver nitrate cauterization corneal neovascularization model, doxycycline concentrations and pH (Example 4). It counts as in vivo, Long Evans pigmented rats. The note with it: score 0 to +3. An excerpt: Thirty-six eyes belonging to thirty-six male Long Evans pigmented rats (200 g to 250 g) were divided into […] groups. Treated eyes were topically administered doxycycline at the following concentrations and having the indicated pH values: 0.05%^w/v (pH 3.3), 0.1%^w/v (pH 3.1), 1%^w/v (pH 2.3), 2%^w/v (pH 2.1), 2%^w/v (adjusted to pH of 7.4). One eye of each animal served as a treated eye and the other eye served as a non-treated control eye. Artificial corneal bums were induced. All the eyes were examined to exclude any eyes with corneal scars and/or neovascularization prior to induction.
Neovascularization was induced in all eyes using silver nitrate cauterization. The animals were first anesthetized by intraperitoneal injection of a mixture of ketamine hydrochloride (25 mg/kg) with xylazine hydrochloride (5 mg/kg). The cornea was then anesthetized by a drop of 0.5% proparacaine and allowed to dry.
The presence of new vessels (neovascularization) and the extent of new vessel formation was assessed by slit lamp photography and histology. Inhibition of vessel proliferation was evaluated by measuring vessel progression from the outer cornea (corneal limbus) into the cornea. As previously described, it will be appreciated that any reduction of new vessel proliferation and/or regression of existing vessels is therapeutic, and that complete inhibition and/or regression is not required, and also that reduction indudes regression of existing vessels.
Neovascularization was evaluated by an examiner who was blinded as to the treatment groups to minimize the observer bias.
The animals were euthanized in a carbon dioxide chamber under deep general anesthesia. The eyes were enucleated and fixed in 10% formaldehyde.
Corneal neovascularization was assessed by scanning (Cano scan 9900F, Canon, Tokyo Japan) the slit lamp photographs into high resolution digital images. […] The percentage area of the cornea covered by the corneal scar in each eye was also determined. A drawing of corneal blood vessels was made to compare with digital photos and ensure that no vascular area was omitted during calculation of percent area.
Statistical analyses were performed using each animal as an experimental unit with Statistical Analysis System (SPSS 11.5) software. Kruscal-Vallis and Mann-Whitney U Analysis was conducted and treatment means were separated at p<0.05 with least significant difference (LSD) test. A p value <0.05 was considered significant.
For histopathologic evaluation, sedated animals were euthanized with inhaled CO2 and enucleation was performed immediately. […] The eyes were prepared for histological examination using 10% formaldehyde. […] The corneas were then soaked in xylene and paraffin, and later embedded in paraffin and cut at […] for staining with hematoxylin and eosin (H&E) for light microscopy.
Light microscopic examination was performed on every microscopic section.

As for `CC(C(=O)[O-])c1ccc(-c2ccccc2)c(F)c1.O.O.[Na+]` (racemic) [flurbiprofen, sodium (±)-2-(2-fluoro-4-biphenylyl)-propionate dihydrate], in series [1], the “Percent Area Of Scar Mean ± SD” value worked out at 18.8 ± 5.2%.
The same measure, in the same setting: the same measure for `CC[C@@H]1/C=C(\C)C[C@H](C)C[C@H](OC)[C@H]2O[C@@](O)(C(=O)C(=O)N3CCCC[C@H]3C(=O)O[C@H](/C(C)=C/[C@@H]3CC[C@@H](O)[C@H](OC)C3)[C@H](C)[C@@H](O)CC1=O)[C@H](C)C[C@@H]2OC` [ascomycin]: 16.7 ± 8.2%.
Regarding `CC1c2cccc(O)c2C(=O)C2=C(O)C3(O)C(=O)C(C(N)=O)=C(O)C(N(C)C)C3C(O)C21.O` (stereo not drawn) [doxycycline, 4-(dimethylamino)-1,4,4a,5,5a,6,11,12a-octahydro3,5,10,12,12a-pentahydroxy-6-methyl-1,11-dioxo-2-naphthacenecarboxamide monohydrate], the “Percent Area Of Scar Mean ± SD” value in series [1] amounted to 16.7 ± 2.8%. Besides, the “Burn stimulus score (Mean ± SD)” value in series [2] (0.05% w/v doxycycline, pH 3.3) was determined as 2.83 ± 0.4; in series [2] (0.1% w/v doxycycline, pH 3.1), 3 ± 0; in series [2] (1% w/v doxycycline, pH 2.3), 2.66 ± 0.51; in series [2] (2% w/v doxycycline adjusted to pH 7.4) it was 2.83 ± 0.4; in series [2] (2% w/v doxycycline, pH 2.1), 3 ± 0.
On to low molecular weight heparin, for which the “Percent Area Of Scar Mean ± SD” value in series [1] is 15.5 ± 2.2%.
